Experimental data reported in PubChem BioAssay AID485314 (National Center for Advancing Translational Sciences (NCATS), 2010).
Screen size: about 340,000 compounds; about 4,500 (1.3%) were called active. Inconclusive means that the source gave no clear call. Such entries were picked first, then a sample of the others. Calls come from the whole dose curve; as a rule, active = well fitted inhibition curve with a large enough effect; inconclusive = small, poorly fitted or top-dose-only effect, or another doubt; inactive = no such curve, though single readings can be large or run the other way. Where the call is inconclusive, the potency comes from a doubtful curve fit.

What follows are molecules tested against DNA polymerase beta (Homo sapiens) (UniProt P06746) (assay: qHTS Assay for Inhibitors of DNA Polymerase Beta). Conditions: Pol beta primer extension/strand displacement, fluorescence kinetic; activity change, negative = inhibition: at 114 µM (top of the series).
Outline: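 Enzyme-only controls used 10 nM Pol beta; buffer lacking enzyme served as negative control. Compound preincubated 15 min, then 50 nM substrate added; 0 and 10 min reads at room temperature.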
% is set by controls: 0 for no effect and ±100 for the full control effect; potency is the fitted concentration of half-maximal effect.

Row | SMILES | activity change, negative = inhibition | Potency
1 | COc1ccc(N2CCN(CCCNC(=O)c3c(C)nn(-c4ccc(F)cc4)c3-n3cccc3)CC2)cc1 | inactive: 31% | –
2 | O=c1[nH]c2cc3c(cc2cc1C(c1nnnn1Cc1ccccc1)N1CCCc2ccccc21)OCO3 (centres undefined) | – | inconclusive: 25.1 µM [inhibitor, full curve]
3 | Cc1ccccc1NC(=O)Cn1nnc(S(=O)(=O)c2ccc(C(C)(C)C)cc2)c1N | – | active: 31.6 µM
4 | CC(C(=O)Nc1ccc2c(c1)OCCO2)N1Cc2ccccc2C1=O (centres undefined) | inactive: 2.77% | –
5 | O=C(O)CC/C(=N\NC(=O)CNC(=O)/C=C/c1ccccc1)c1ccccc1 | inconclusive: -33.4% [inhibitor] | –
6 | O=C(CSc1nnc(SCc2cccc3ccccc23)s1)N=Nc1c(O)[nH]c2ccccc12 | – | active: 12.6 µM
7 | Cc1ccc(NC(=O)c2ccc3c(c2)NC(=O)c2ccccc2S3)c(Cl)c1 | – | inconclusive: 7.08 µM [inhibitor, partial curve, poor fit]
8 | CCc1ccc(-n2nnnc2SCC(=O)Nc2ccc(NC(C)=O)cc2)cc1 | inactive: 3.1% | –
9 | CN(C)C=Nc1ncc2c3ccccc3n(CCN(C)C)c2c1C#N | – | inconclusive: 28.2 µM [inhibitor, full curve]
10 | Cc1ccc(C(=O)/C=C/c2ccco2)c(O)c1 | – | inconclusive: 7.08 µM [inhibitor, full curve]
11 | CCc1cccc(CC)c1NC(=O)CN(C)S(=O)(=O)c1ccc2c(c1)n(C)c(=O)c(=O)n2C | inactive: -13.6% | –
12 | COCCN1C(=O)C(=O)/C(=C(/O)c2cccc(OC)c2)C1c1ccco1 (centres undefined) | – | active: 31.6 µM
13 | Cc1cccc(-c2nnc(SCC(=O)N3c4ccccc4CCc4ccccc43)n2C)c1 | – | inconclusive: 79.4 µM [inhibitor, single point]
14 | COc1ccc(C2(NC(C)=O)CCN(Cc3cccnc3)CC2)cc1 | – | inconclusive: 89.1 µM [inhibitor, single point]
15 | CCn1c(SCc2cc(=O)n3ccsc3n2)nc2ccccc21 | – | inconclusive: 12.6 µM [inhibitor, full curve, poor fit]
16 | COc1ccc(OC)c2sc(NC(=O)c3ccc(Br)s3)nc12 | – | inconclusive: 4.47 µM [inhibitor, partial curve, poor fit]
17 | CC(C)C/C=C1\CCc2c([nH]c3ccccc23)C1=O | – | inconclusive: 89.1 µM [inhibitor, single point]
18 | CCOC(=O)Cn1nc(NC(=O)COc2ccc(F)cc2)cc1C | – | inconclusive: 22.4 µM [inhibitor, single point]
19 | CCOC(=O)CN(C(=O)CSc1nnc2c(n1)[nH]c1ccccc12)c1ccccc1 | – | inconclusive: 50.1 µM [inhibitor, partial curve, poor fit]
20 | COc1cccc2cc(-c3nc4sc5c(c4c(=O)[nH]3)CCC(C(C)(C)C)C5)c(=O)oc12 (centres undefined) | inactive: -4.86% | –
21 | Cc1c(C)c2c(C)nn(-c3ccccc3)c2[nH]c1=O | inactive: 14.2% | –
22 | COc1cccc(CNC(=O)CCC(=O)n2ncc3cc(C)ccc32)c1OC | inactive: 0.624% | –
23 | CC(=O)Nc1ccc(NC(=O)CC2Nc3cccc4cccc(c34)NC2=O)cc1 (centres undefined) | inactive: 9.32% | –

Row | SMILES | activity change, negative = inhibition | Potency
24 | Cc1ccc2c(=O)cc(C(=O)Nc3c(C)cccc3C)oc2c1 | – | inconclusive: 20 µM [inhibitor, partial curve]
25 | CC(=O)N1CCCc2ccc(NC(=O)c3ccc(OC(C)C)cc3)cc21 | inactive: 12.7% | –
26 | Cc1cccc(NC(=O)CSc2nc(C3CC3)nc3ccccc23)c1 | – | active: 22.4 µM
27 | CCC(=O)N1CCc2cc(Br)cc(S(=O)(=O)N3CCCC(C(=O)NCc4ccc(C)cc4)C3)c21 (centres undefined) | – | inconclusive: 89.1 µM [inhibitor, single point]
28 | COc1ccc(Oc2nc3c(c(=O)n(C)c(=O)n3C)n2Cc2ccccc2)cc1 | – | inconclusive: 0.282 µM [inhibitor, full curve]
29 | CCCS(=O)(=O)N1CCCC(C(=O)N2CCN(c3ccccn3)CC2)C1 (centres undefined) | – | inconclusive: 35.5 µM [inhibitor, single point]
30 | Cc1nc([N+](=O)[O-])cn1CC(=O)Nc1ccc2c(c1)OCO2 | – | inconclusive: 56.2 µM [inhibitor, partial curve, poor fit]
31 | CC1=CCC(C(=O)O)C(C(=O)NC2CCCCC2)C1 (centres undefined) | – | active: 28.2 µM
32 | O=C(NCc1cccs1)c1cccc(S(=O)(=O)N2CCCCC2)c1 | – | inconclusive: 63.1 µM [inhibitor, single point]
33 | COc1cc(/C=C/c2nc3ccccc3s2)cc(OC)c1O | – | active: 22.4 µM
34 | CCOC(=O)CC1COCCN1Cc1cn[nH]c1-c1cc(OC)c(OC)c(OC)c1 (centres undefined) | – | inconclusive: 0.316 µM [inhibitor, full curve, poor fit]
35 | CCCc1nc2c([nH]1)c(=O)n(C)c(=O)n2C | – | inconclusive: 0.708 µM [inhibitor, full curve, poor fit]
36 | COc1cccc(CNC(=O)c2ccc3c(c2)nc2n3CCOC2)c1OC | inactive: -11.8% | –
37 | CCN(Cc1ccncc1)Cc1cn(C)nc1-c1ccc(Oc2ccccc2)cc1 | – | inconclusive: 1.12 µM [inhibitor, full curve]
38 | Cc1cc(C)c2c(=O)cc(C(=O)Nc3sc4c(c3C#N)CCCC4)oc2c1 | – | inconclusive: 89.1 µM [inhibitor, single point]
39 | COc1cccc(N=Nc2ccc3cccnc3c2O)c1 | – | inconclusive: 89.1 µM [inhibitor, single point]
40 | CCc1nn2c(=O)cc(COC(=O)c3cccc(NC(=O)c4ccccc4C)c3)nc2s1 | – | inconclusive: 89.1 µM [inhibitor, single point]
41 | Cc1ccc(C)c(NC(=O)CCC(=O)N2CCOc3ccccc32)c1 | inactive: 3.35% | –
42 | O=C1NC(c2cccnc2)C(C(=O)c2cccs2)C(O)(C(F)(F)F)N1 (centres undefined) | – | inconclusive: 89.1 µM [inhibitor, single point]
43 | COc1ccc(OC(C)C(=O)Nc2ccc(F)cc2F)cc1 (centres undefined) | – | inconclusive: 89.1 µM [inhibitor, single point]
44 | Cc1cc(=O)cc(C)n1-c1ccc(Cl)cc1 | – | inconclusive: 0.794 µM [inhibitor, full curve, poor fit]
45 | O=C(/C=C/c1ccc([N+](=O)[O-])cc1)Nc1cccnc1 | – | inconclusive: 89.1 µM [inhibitor, partial curve]
46 | COc1cc2c(cc1OC)-c1cc(Nc3ccccc3C)nc(=O)n1CC2 | – | inconclusive: 70.8 µM [inhibitor, single point]

Complete entries, looked up by structure.
CCc1nn2c(=O)cc(COC(=O)c3cccc(NC(=O)c4ccccc4C)c3)nc2s1 as listed: Potency: inconclusive: 89.1 µM [inhibitor, single point]
Cc1cccc(NC(=O)CSc2nc(C3CC3)nc3ccccc23)c1 as listed: Potency: active: 22.4 µM
CCN(Cc1ccncc1)Cc1cn(C)nc1-c1ccc(Oc2ccccc2)cc1 as listed: Potency: inconclusive: 1.12 µM [inhibitor, full curve]

Next structures:

Row | SMILES | activity change, negative = inhibition | Potency
47 | CCn1nnc2cc(C(=O)O)ccc21 | inactive: -27.8% | –
48 | CCCSC1=C(C#N)C(c2cccs2)C(C(=O)Nc2ccccc2)=C(C)N1 (centres undefined) | – | inconclusive: 25.1 µM [inhibitor, partial curve, poor fit]
49 | O=c1[nH]cnc2cc(-c3ccc(Br)cc3)sc12 | – | inconclusive: 56.2 µM [inhibitor, partial curve, poor fit]
50 | Cc1ccc(CN(C(=O)c2ccc(F)cc2)c2ccccn2)o1 | inactive: 2.03% | –
51 | CC(C)CCNC(=O)c1cnn2c(C(F)(F)F)cc(-c3ccco3)nc12 | – | inconclusive: 31.6 µM [inhibitor, partial curve]
52 | CC(=O)Oc1c(Cl)c(N2CCOCC2)c(OC(C)=O)c2ccccc12 | – | inconclusive: 56.2 µM [inhibitor, single point]
53 | Cc1ccc(C)c2c3c([nH]c12)-c1nonc1CC3 | – | inconclusive: 0.158 µM [inhibitor, full curve, poor fit]
54 | N#CC1=C(SCc2ccccc2)NC(=O)CC1c1ccco1 (centres undefined) | – | inconclusive: 70.8 µM [inhibitor, partial curve]
55 | CCc1sc(C(=O)NCCc2ccc(S(N)(=O)=O)cc2)cc1Br | inactive: -0.746% | –
56 | O=C(C1Cc2ccccc2CN1C(=O)c1ccccc1)N1CCN(c2ccccc2)CC1 (centres undefined) | – | active: 31.6 µM
57 | Cc1ccccc1C(=O)Nc1cccc(NC(=O)c2ncn[nH]2)c1 | – | inconclusive: 20 µM [inhibitor, single point]
58 | O=C(NCc1ccc(F)cc1)C1CCN(S(=O)(=O)c2ccc3c(c2)CCCN3C(=O)C2CCC2)CC1 | inactive: 4.55% | –
59 | Cc1ccccc1C(=O)Oc1cc(-c2ccc3c(c2)OCO3)cc(=O)c2c(C)oc(C)c12 | – | inconclusive: 22.4 µM [inhibitor, single point]
60 | CC(/C=C1\SC(=Nc2cccnc2)NC1=O)=C\c1ccccc1 | – | inconclusive: 0.355 µM [inhibitor, full curve, poor fit]
61 | Cc1ccc(OCCNC(=O)/C=C/c2ccco2)cc1C | – | inconclusive: 17.8 µM [inhibitor, single point]
62 | O=C1CCCN2N=C(SCC(=O)Nc3ccc(F)cc3F)SC2=N1 | – | inconclusive: 35.5 µM [inhibitor, full curve]
63 | CCN(CC)CCNC(=O)CN1C(=O)c2cccnc2Oc2ccc(C)cc21 | – | inconclusive: 35.5 µM [inhibitor, full curve, poor fit]
64 | CCOC(=O)c1ccc(NC(=O)c2cccc(S(=O)(=O)N3CCN(C(C)=O)CC3)c2)cc1 | inactive: 16.4% | –
65 | CC(/C=C/c1ccco1)=N\NC(=O)c1cc(Cl)ccc1O | – | inconclusive: 14.1 µM [inhibitor, full curve]
66 | Cc1ccc(S(=O)(=O)N2CCN(Cc3ccccc3)CC2)c(C)c1NS(C)(=O)=O | – | inconclusive: 89.1 µM [inhibitor, single point]
67 | CCOc1ccccc1-c1nn2c(Cc3ccccc3)nnc2s1 | – | inconclusive: 31.6 µM [inhibitor, partial curve, poor fit]
68 | Cc1ccccc1C(=O)Nc1ccc(N2CCN(C(=O)c3ccco3)CC2)cc1 | – | inconclusive: 63.1 µM [inhibitor, single point]
69 | Cc1cc2ccccn2c1C(=O)c1ccc(N/N=C/c2ccc(C(=O)O)cc2)c([N+](=O)[O-])c1 | inconclusive: -61.5% [inhibitor] | –
